# From patent US20160369115A1, “POLARIZING PLATE COMPOSITION, POLARIZING PLATE PROTECTIVE FILM, POLARIZER, POLARIZING PLATE, LIQUID CRYSTAL DISPLAY DEVICE, AND COMPOUND USED IN THE LIQUID CRYSTAL DISPLAY DEVICE” (FUJIFILM Corporation, priority 2014, published 2016)
# Experiments:
# [1] = Bleed-out properties in polarizer (haze evaluation); details: haze of polarizing plate; additive in polarizer, added amount 1.0 per 100 parts by mass of polyvinyl alcohol resin
# [2] = Evaluation of durability of polarizing plate, additive in adhesive layer (Example 3); details: added amount 10.0 per 100 parts by mass of the polyvinyl alcohol resin, film thickness 5 μm; for Durability of polarizer: amount of change of orthogonal transmittance (%) 60° C., 95%, 500 hours / Durability of polarizer: amount of change of orthogonal transmittance (%) 60° C., 95%, 1,000 hours / Durability of polarizer: amount of change of orthogonal transmittance (%) 80° C., Dry 500 hours / Durability of polarizer: amount of change of orthogonal transmittance (%) 80° C., Dry, 1,000 hours: 410 nm
# [3] = Evaluation of durability of polarizing plate, additive in polarizer (Example 2); details: added amount 1.0 per 100 parts by mass of polyvinyl alcohol resin, 410 nm
structure (smiles),measurement,setting,value
COC(=O)Oc1[nH]c(=O)n(Cc2ccc(B(O)O)cc2)c(=O)c1Cc1ccc(S(=O)(=O)[O-])cc1S(=O)(=O)[O-].[Na+].[Na+] [Example compound AAL],Bleed out,[1],A (The haze was less than 0.3%.)
same,"Durability of polarizer: amount of change of degree of polarization (%) 60° C., 95%, 500 hours",[2],A+ (The amount of change of the degree of polarization before and after the elapse of time was less than 0.05%.)
same,"Durability of polarizer: amount of change of degree of polarization (%) 60° C., 95%, 1,000 hours",[2],A+ (The amount of change of the degree of polarization before and after the elapse of time was less than 1.0%.)
same,"Durability of polarizer: amount of change of degree of polarization (%) 80° C., Dry, 500 hours",[2],A+ (The amount of change of the degree of polarization before and after the elapse of time was less than 0.05%.)
same,"Durability of polarizer: amount of change of degree of polarization (%) 80° C., Dry, 1,000 hours",[2],A+ (The amount of change of the degree of polarization before and after the elapse of time was less than 0.1%.)
same,"Durability of polarizer: amount of change of orthogonal transmittance (%) 60° C., 95%, 500 hours",[2],A+ (The amount of change of the orthogonal transmittance before and after the elapse of time was less than 0.1%.)
same,"Durability of polarizer: amount of change of orthogonal transmittance (%) 60° C., 95%, 1,000 hours",[2],A+ (The amount of change of the orthogonal transmittance before and after the elapse of time was less than 0.5%.)
same,"Durability of polarizer: amount of change of orthogonal transmittance (%) 80° C., Dry 500 hours",[2],A+ (The amount of change of the orthogonal transmittance before and after the elapse of time was less than 0.05%.)
same,"Durability of polarizer: amount of change of orthogonal transmittance (%) 80° C., Dry, 1,000 hours",[2],A+ (The amount of change of the orthogonal transmittance before and after the elapse of time was less than 0.1%.)
same,"Durability of polarizer: amount of change of degree of polarization (%) 60° C., 95%, 500 hours",[3],A+ (The amount of change of the degree of polarization before and after the elapse of time was less than 0.05%.)
same,"Durability of polarizer: amount of change of degree of polarization (%) 60° C., 95%, 1,000 hours",[3],A+ (The amount of change of the degree of polarization before and after the elapse of time was less than 1.0%.)
same,"Durability of polarizer: amount of change of degree of polarization (%) 80° C., Dry, 500 hours",[3],A+ (The amount of change of the degree of polarization before and after the elapse of time was less than 0.05%.)
same,"Durability of polarizer: amount of change of degree of polarization (%) 80° C., Dry, 1,000 hours",[3],A+ (The amount of change of the degree of polarization before and after the elapse of time was less than 0.1%.)
same,"Durability of polarizer: amount of change of orthogonal transmittance (%) 60° C., 95%, 500 hours",[3],A+ (The amount of change of the orthogonal transmittance before and after the elapse of time was less than 0.1%.)
same,"Durability of polarizer: amount of change of orthogonal transmittance (%) 60° C., 95%, 1,000 hours",[3],A+ (The amount of change of the orthogonal transmittance before and after the elapse of time was less than 0.5%.)
same,"Durability of polarizer: amount of change of orthogonal transmittance (%) 80° C., Dry 500 hours",[3],A+ (The amount of change of the orthogonal transmittance before and after the elapse of time was less than 0.05%.)
same,"Durability of polarizer: amount of change of orthogonal transmittance (%) 80° C., Dry, 1,000 hours",[3],A+ (The amount of change of the orthogonal transmittance before and after the elapse of time was less than 0.1%.)
COC(=O)Oc1[nH]c(=O)n(CCCS(=O)(=O)[O-])c(=O)c1Cc1ccc(C=O)cc1.[Na+] [Example compound AAC],Bleed out,[1],A (The haze was less than 0.3%.)
same,"Durability of polarizer: amount of change of degree of polarization (%) 60° C., 95%, 500 hours",[2],A+ (The amount of change of the degree of polarization before and after the elapse of time was less than 0.05%.)
same,"Durability of polarizer: amount of change of degree of polarization (%) 60° C., 95%, 1,000 hours",[2],A+ (The amount of change of the degree of polarization before and after the elapse of time was less than 1.0%.)
same,"Durability of polarizer: amount of change of degree of polarization (%) 80° C., Dry, 500 hours",[2],A+ (The amount of change of the degree of polarization before and after the elapse of time was less than 0.05%.)
same,"Durability of polarizer: amount of change of degree of polarization (%) 80° C., Dry, 1,000 hours",[2],A+ (The amount of change of the degree of polarization before and after the elapse of time was less than 0.1%.)
same,"Durability of polarizer: amount of change of orthogonal transmittance (%) 60° C., 95%, 500 hours",[2],A+ (The amount of change of the orthogonal transmittance before and after the elapse of time was less than 0.1%.)
same,"Durability of polarizer: amount of change of orthogonal transmittance (%) 60° C., 95%, 1,000 hours",[2],A+ (The amount of change of the orthogonal transmittance before and after the elapse of time was less than 0.5%.)
same,"Durability of polarizer: amount of change of orthogonal transmittance (%) 80° C., Dry 500 hours",[2],A+ (The amount of change of the orthogonal transmittance before and after the elapse of time was less than 0.05%.)
same,"Durability of polarizer: amount of change of orthogonal transmittance (%) 80° C., Dry, 1,000 hours",[2],A+ (The amount of change of the orthogonal transmittance before and after the elapse of time was less than 0.1%.)
same,"Durability of polarizer: amount of change of degree of polarization (%) 60° C., 95%, 500 hours",[3],A+ (The amount of change of the degree of polarization before and after the elapse of time was less than 0.05%.)
same,"Durability of polarizer: amount of change of degree of polarization (%) 60° C., 95%, 1,000 hours",[3],A+ (The amount of change of the degree of polarization before and after the elapse of time was less than 1.0%.)
same,"Durability of polarizer: amount of change of degree of polarization (%) 80° C., Dry, 500 hours",[3],A+ (The amount of change of the degree of polarization before and after the elapse of time was less than 0.05%.)
same,"Durability of polarizer: amount of change of degree of polarization (%) 80° C., Dry, 1,000 hours",[3],A+ (The amount of change of the degree of polarization before and after the elapse of time was less than 0.1%.)
same,"Durability of polarizer: amount of change of orthogonal transmittance (%) 60° C., 95%, 500 hours",[3],A+ (The amount of change of the orthogonal transmittance before and after the elapse of time was less than 0.1%.)
same,"Durability of polarizer: amount of change of orthogonal transmittance (%) 60° C., 95%, 1,000 hours",[3],A+ (The amount of change of the orthogonal transmittance before and after the elapse of time was less than 0.5%.)
same,"Durability of polarizer: amount of change of orthogonal transmittance (%) 80° C., Dry 500 hours",[3],A+ (The amount of change of the orthogonal transmittance before and after the elapse of time was less than 0.05%.)
same,"Durability of polarizer: amount of change of orthogonal transmittance (%) 80° C., Dry, 1,000 hours",[3],A+ (The amount of change of the orthogonal transmittance before and after the elapse of time was less than 0.1%.)
CC(C)[Si](Oc1c(Cc2ccccc2)c(=O)n(CS(=O)(=O)[O-])c(=O)n1C)(C(C)C)C(C)C.[Na+] [Example compound L],Bleed out,[1],A (The haze was less than 0.3%.)
same,"Durability of polarizer: amount of change of degree of polarization (%) 60° C., 95%, 500 hours",[2],A+ (The amount of change of the degree of polarization before and after the elapse of time was less than 0.05%.)
same,"Durability of polarizer: amount of change of degree of polarization (%) 60° C., 95%, 1,000 hours",[2],A+ (The amount of change of the degree of polarization before and after the elapse of time was less than 1.0%.)
same,"Durability of polarizer: amount of change of degree of polarization (%) 80° C., Dry, 500 hours",[2],A+ (The amount of change of the degree of polarization before and after the elapse of time was less than 0.05%.)
same,"Durability of polarizer: amount of change of degree of polarization (%) 80° C., Dry, 1,000 hours",[2],A+ (The amount of change of the degree of polarization before and after the elapse of time was less than 0.1%.)
same,"Durability of polarizer: amount of change of orthogonal transmittance (%) 60° C., 95%, 500 hours",[2],A+ (The amount of change of the orthogonal transmittance before and after the elapse of time was less than 0.1%.)
same,"Durability of polarizer: amount of change of orthogonal transmittance (%) 60° C., 95%, 1,000 hours",[2],A+ (The amount of change of the orthogonal transmittance before and after the elapse of time was less than 0.5%.)
same,"Durability of polarizer: amount of change of orthogonal transmittance (%) 80° C., Dry 500 hours",[2],A+ (The amount of change of the orthogonal transmittance before and after the elapse of time was less than 0.05%.)
same,"Durability of polarizer: amount of change of orthogonal transmittance (%) 80° C., Dry, 1,000 hours",[2],A+ (The amount of change of the orthogonal transmittance before and after the elapse of time was less than 0.1%.)
same,"Durability of polarizer: amount of change of degree of polarization (%) 60° C., 95%, 500 hours",[3],A+ (The amount of change of the degree of polarization before and after the elapse of time was less than 0.05%.)
same,"Durability of polarizer: amount of change of degree of polarization (%) 60° C., 95%, 1,000 hours",[3],A+ (The amount of change of the degree of polarization before and after the elapse of time was less than 1.0%.)
same,"Durability of polarizer: amount of change of degree of polarization (%) 80° C., Dry, 500 hours",[3],A+ (The amount of change of the degree of polarization before and after the elapse of time was less than 0.05%.)
same,"Durability of polarizer: amount of change of degree of polarization (%) 80° C., Dry, 1,000 hours",[3],A+ (The amount of change of the degree of polarization before and after the elapse of time was less than 0.1%.)
same,"Durability of polarizer: amount of change of orthogonal transmittance (%) 60° C., 95%, 500 hours",[3],A+ (The amount of change of the orthogonal transmittance before and after the elapse of time was less than 0.1%.)
same,"Durability of polarizer: amount of change of orthogonal transmittance (%) 60° C., 95%, 1,000 hours",[3],A+ (The amount of change of the orthogonal transmittance before and after the elapse of time was less than 0.5%.)
same,"Durability of polarizer: amount of change of orthogonal transmittance (%) 80° C., Dry 500 hours",[3],A+ (The amount of change of the orthogonal transmittance before and after the elapse of time was less than 0.05%.)
same,"Durability of polarizer: amount of change of orthogonal transmittance (%) 80° C., Dry, 1,000 hours",[3],A+ (The amount of change of the orthogonal transmittance before and after the elapse of time was less than 0.1%.)
